Assay results taken from paper PMC7819943, “Rice protein-binding microarrays: a tool to detect cis-acting elements near promoter regions in rice”.
The list shows a part of the results.

By UniProt entry, the sequences of proteins in these tests, tags left out.
UniProt Q0JBA9, entry or part of it: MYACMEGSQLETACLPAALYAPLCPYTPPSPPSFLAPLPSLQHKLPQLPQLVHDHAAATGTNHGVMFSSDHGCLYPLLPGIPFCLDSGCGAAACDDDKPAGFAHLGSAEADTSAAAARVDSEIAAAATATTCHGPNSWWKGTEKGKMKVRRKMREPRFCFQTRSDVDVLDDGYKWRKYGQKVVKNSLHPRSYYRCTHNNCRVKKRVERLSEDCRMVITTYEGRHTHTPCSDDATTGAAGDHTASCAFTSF

molecular target: OsWRKY34 (Oryza sativa, UniProt Q0JBA9 1-250); test: protein-binding microarray (RPBM); PBS, 2% BSA, 51.3 ng/ul salmon testes DNA, 50 uM zinc acetate, 200 nM TF, 25 C, 1 h; high values mean tight binding; details: protein: recombinant; tags: N-terminal polyhistidine and DsRed monomer fusion (pET32a); label: CyDye5-dUTP incorporated in the synthesized complementary strand; 3' TTTTT single-stranded linker to array surface; dsDNA, one strand shown
How it was run: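 Per-feature fluorescence intensity (arbitrary units), read on an Axon 4000B scanner, is the binding signal. Transcription factors carrying an N-terminal polyhistidine tag and DsRed fusion were expressed in E. coli BL21-CodonPlus and purified on Ni–NTA. A custom Agilent array, made double-stranded by primer extension with Cy5-dUTP and blocked with 2% BSA, was incubated with 200 nM protein in PBS, 2% BSA, salmon testes DNA and 50 µM zinc acetate at 25 °C for 1 h and then washed.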

| Sequence | binding signal |
| --- | --- |
| CACCATGTAAGTTTCTCCTCACTTTTTTTTCCCTCTTTGACGGAGTCACCTAGTGCAG | 9540 fluorescence intensity (a.u.) |
| AAGATCCACCCGCCCGACCAGGTTTCGTTTCGATTTTTCTCGGAGTCACCTAGTGCAG | 12300 fluorescence intensity (a.u.) |
| AGTTTCTTCCCTTCGTCCTCGTCTCCTCGACCTCACCACCCGGAGTCACCTAGTGCAG | 9770 fluorescence intensity (a.u.) |
| GAAGAAATAAAGCTTCCACTCGCTCATACTTTCTGTGTTCCGGAGTCACCTAGTGCAG | 10100 fluorescence intensity (a.u.) |
| GACGGACGATCGGTTCCCCATTTCGCTCCCATCGATCCCTCGGAGTCACCTAGTGCAG | 8220 fluorescence intensity (a.u.) |
| TAATACACTAGCCCCAATGTTTGTTTGCCTAATCTACTCTCGGAGTCACCTAGTGCAG | 9080 fluorescence intensity (a.u.) |
| CGTGCTTATTTGATGTGGCGTTTGGGCCTTGGTTTAACCGCGGAGTCACCTAGTGCAG | 9120 fluorescence intensity (a.u.) |
| CTCCGTTATACGCGGGCACACTGTTAGTTGCTCCATTTTGCGGAGTCACCTAGTGCAG | 8330 fluorescence intensity (a.u.) |
| AATGTCGTGGCCTTTTATGGTGTTGTTCTTGATGGACCTGCGGAGTCACCTAGTGCAG | 8160 fluorescence intensity (a.u.) |
| GACTTGTAAACTACGGTCTATTTCTTCACCTGCAATAATACGGAGTCACCTAGTGCAG | 8900 fluorescence intensity (a.u.) |
| AATACTATTTTGGTTCTTTTTGGTTGCTAGAAATATATTTCGGAGTCACCTAGTGCAG | 8860 fluorescence intensity (a.u.) |
| TGTCTATATCTGGTCCTGGTACATCATTGCACTTTATGTTCGGAGTCACCTAGTGCAG | 8880 fluorescence intensity (a.u.) |
| CAACGGACAACCATCTCCCATACCGCGAACAGAGACAACTCGGAGTCACCTAGTGCAG | 10200 fluorescence intensity (a.u.) |
| ATGGAGTAATATTTCTCACCCCTTTTTCCCATGGTCACACCGGAGTCACCTAGTGCAG | 8260 fluorescence intensity (a.u.) |
| TTAATACTCCAAATCGCTCAGTTCTTTTCTCATGATGATACGGAGTCACCTAGTGCAG | 9220 fluorescence intensity (a.u.) |
| TGCTTGACTGTGAGTACTGTTTGGGAGGGAGAGTGGTAAACGGAGTCACCTAGTGCAG | 9540 fluorescence intensity (a.u.) |
| CTCCACTACTTGCATTGTTTATCTGCGTCATCGTTTCCTTCGGAGTCACCTAGTGCAG | 9110 fluorescence intensity (a.u.) |
| TGGGTGTGGGTACGGAGAGTGGAAACCCGTTGGGTCCATACGGAGTCACCTAGTGCAG | 8320 fluorescence intensity (a.u.) |
| AGTTATTACTAATACAGTACTCTCCCTTTTGCTCTATCTTCGGAGTCACCTAGTGCAG | 12800 fluorescence intensity (a.u.) |
| ATTATTTGCCTTTCTTGTTGGAATTTATTTATTTTCAGCTCGGAGTCACCTAGTGCAG | 9290 fluorescence intensity (a.u.) |
| CTGTCCTCTATCGATTGTTCTGACTTGGGTCACCATGTAACGGAGTCACCTAGTGCAG | 8990 fluorescence intensity (a.u.) |
| TTTTTACCTATACTGTCTATTGTTTTCTATGTCTCTCCCTCGGAGTCACCTAGTGCAG | 9360 fluorescence intensity (a.u.) |
| TTTACTCATGATTACGCTAATTATTCCACTCAATTCTCACCGGAGTCACCTAGTGCAG | 9120 fluorescence intensity (a.u.) |

Looked up one by one from the list above:

| Sequence | binding signal |
| --- | --- |
| CTCCGTTATACGCGGGCACACTGTTAGTTGCTCCATTTTGCGGAGTCACCTAGTGCAG | 8330 fluorescence intensity (a.u.) |
| GACTTGTAAACTACGGTCTATTTCTTCACCTGCAATAATACGGAGTCACCTAGTGCAG | 8900 fluorescence intensity (a.u.) |
